Assay results taken from the supplement of paper PMC10849652.
This is one part of the list.

By UniProt entry, the sequences of proteins in these tests, tags left out. Where a name states a change or a piece, a line headed by the entry shows the natural chain unless it says otherwise.
UniProt Q13573: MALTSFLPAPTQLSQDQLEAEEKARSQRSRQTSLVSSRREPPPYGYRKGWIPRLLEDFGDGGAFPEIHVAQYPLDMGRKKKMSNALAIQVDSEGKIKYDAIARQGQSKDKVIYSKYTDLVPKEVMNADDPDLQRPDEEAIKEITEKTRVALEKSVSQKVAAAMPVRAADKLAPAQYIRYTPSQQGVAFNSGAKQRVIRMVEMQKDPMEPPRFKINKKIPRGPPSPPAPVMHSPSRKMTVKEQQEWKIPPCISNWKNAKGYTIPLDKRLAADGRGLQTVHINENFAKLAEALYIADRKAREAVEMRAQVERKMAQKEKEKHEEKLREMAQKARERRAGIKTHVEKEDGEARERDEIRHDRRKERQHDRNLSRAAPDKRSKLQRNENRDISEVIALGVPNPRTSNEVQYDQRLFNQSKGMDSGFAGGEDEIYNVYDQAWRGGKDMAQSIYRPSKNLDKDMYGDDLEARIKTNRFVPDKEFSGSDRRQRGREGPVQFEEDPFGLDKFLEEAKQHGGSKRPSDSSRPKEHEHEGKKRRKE
UniProt Q9UPR3: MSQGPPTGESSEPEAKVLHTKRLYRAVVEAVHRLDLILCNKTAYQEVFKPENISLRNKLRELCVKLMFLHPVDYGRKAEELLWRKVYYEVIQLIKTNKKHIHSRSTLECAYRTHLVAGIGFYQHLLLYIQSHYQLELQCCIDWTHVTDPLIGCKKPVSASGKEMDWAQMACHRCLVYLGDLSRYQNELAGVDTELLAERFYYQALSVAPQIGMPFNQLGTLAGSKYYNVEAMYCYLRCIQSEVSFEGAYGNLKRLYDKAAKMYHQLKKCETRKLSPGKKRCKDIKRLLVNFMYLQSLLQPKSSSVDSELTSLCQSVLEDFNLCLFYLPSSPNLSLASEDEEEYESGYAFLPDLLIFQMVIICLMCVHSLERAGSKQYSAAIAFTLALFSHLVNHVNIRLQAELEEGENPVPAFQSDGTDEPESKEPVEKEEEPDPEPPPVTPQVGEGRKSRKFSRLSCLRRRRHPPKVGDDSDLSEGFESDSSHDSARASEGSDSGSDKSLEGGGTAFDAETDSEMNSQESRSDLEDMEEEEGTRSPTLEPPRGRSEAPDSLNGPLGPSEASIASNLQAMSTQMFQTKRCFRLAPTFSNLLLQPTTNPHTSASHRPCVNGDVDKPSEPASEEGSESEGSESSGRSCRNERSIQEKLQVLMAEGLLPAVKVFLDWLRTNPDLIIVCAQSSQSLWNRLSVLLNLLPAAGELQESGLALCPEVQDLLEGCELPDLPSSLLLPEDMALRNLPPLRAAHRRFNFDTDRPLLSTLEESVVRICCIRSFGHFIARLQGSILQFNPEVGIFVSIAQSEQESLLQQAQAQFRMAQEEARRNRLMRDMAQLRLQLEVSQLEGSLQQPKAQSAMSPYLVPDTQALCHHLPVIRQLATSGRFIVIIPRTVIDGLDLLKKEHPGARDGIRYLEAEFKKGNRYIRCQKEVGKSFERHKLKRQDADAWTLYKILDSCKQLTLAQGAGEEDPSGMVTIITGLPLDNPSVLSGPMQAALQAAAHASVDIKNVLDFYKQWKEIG
UniProt P52788: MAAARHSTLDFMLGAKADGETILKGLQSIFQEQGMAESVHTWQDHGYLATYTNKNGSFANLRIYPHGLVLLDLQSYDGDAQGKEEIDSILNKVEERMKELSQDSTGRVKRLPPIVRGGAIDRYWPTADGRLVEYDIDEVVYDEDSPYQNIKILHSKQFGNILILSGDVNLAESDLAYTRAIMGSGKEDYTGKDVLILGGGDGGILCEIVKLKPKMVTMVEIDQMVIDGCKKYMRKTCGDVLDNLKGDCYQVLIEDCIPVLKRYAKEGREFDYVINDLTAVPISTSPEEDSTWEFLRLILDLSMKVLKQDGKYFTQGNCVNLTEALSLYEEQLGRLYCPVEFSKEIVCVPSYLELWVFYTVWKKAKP

How the values were obtained:
Assay in all cases: log2 fold change, soluble protein after heating vs DMSO (PISA); higher = thermal stabilisation; K562 lysate, 10 uM; active = over 0.2 and 3.5 SD of the protein, either way, in both replicates (recomputed)
[1] = compound: CS(=O)(=O)CCNCc1ccc(-c2ccc3ncnc(Nc4ccc(OCc5cccc(F)c5)c(Cl)c4)c3c2)o1 [lapatinib]
Outline: (§1)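 Quantification was by TMTpro 16plex LC-MS/MS with equalised channel sums, applied to the supernatant after 21,000xg for 90 min. Samples were crude K562 extract at 1 mg/mL protein in PBS pH 7.4 with 1 mM MgCl2, treated with 10 μM compound for 30 min, heated for 3 min across 48°C-58°C, pooled and brought to 0.5% NP-40 at 4°C. Values are log-two fold changes in thermal stability relative to solvent controls, from duplicates.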

[2] = compound: CS(=O)(=O)N1CCN(Cc2cc3nc(-c4cccc5[nH]ncc45)nc(N4CCOCC4)c3s2)CC1 [pictilisib]
Outline: as §1

[3] = compound: C[C@@H](Oc1cc(-c2cnn(C3CCNCC3)c2)cnc1N)c1c(Cl)ccc(F)c1Cl [crizotinib]
Outline: as §1

[4] = compound: C[C@H](C1=CC=C(C=C1)C(=O)NC2=C3C=CNC3=NC=C2)N
Outline: as §1

[5] = compound: C[C@H](Nc1ncnc2nc[nH]c12)c1cc2cccc(Cl)c2c(=O)n1-c1ccccc1 [duvelisib]
Outline: as §1

[6] = compound: Cc1cc(Nc2cc(CN3CCOCC3)c3nc(C)c(Cc4ccc(Cl)cc4F)n3n2)n[nH]1 [gandotinib]
Outline: as §1

[7] = compound: Cc1cc(Nc2cc(N3CCN(C)CC3)nc(Sc3ccc(NC(=O)C4CC4)cc3)n2)n[nH]1 [tozasertib]
Outline: as §1

[8] = compound: Cc1ccc(-n2nc(C(C)(C)C)cc2NC(=O)Nc2ccc(OCCN3CCOCC3)c3ccccc23)cc1 [doramapimod]
Outline: as §1

[9] = compound: Cc1ccc(NC(=O)c2ccc(CN3CC[C@H](N(C)C)C3)c(C(F)(F)F)c2)cc1Nc1nccc(-c2cncnc2)n1 [bafetinib]
Outline: as §1

[10] = compound: Cc1cccc(CC(=O)N2CCc3c2ccc(-c2cn(C)c4ncnc(N)c24)c3F)n1
Outline: as §1

[11] = compound: Cc1cn(-c2cc(NC(=O)c3ccc(C)c(Nc4nccc(-c5cccnc5)n4)c3)cc(C(F)(F)F)c2)cn1 [nilotinib]
Outline: as §1

[12] = compound: Cc1nc(Nc2n[nH]c3c2CN(C(=O)N[C@H](CN(C)C)c2ccccc2)C3(C)C)c2sccc2n1
Outline: as §1

[13] = compound: Cc1nc(Nc2ncc(C(=O)Nc3c(C)cccc3Cl)s2)cc(N2CCN(CCO)CC2)n1 [dasatinib]
Outline: as §1

[14] = compound: Cc1ncc(-c2ccnc(Nc3ccc(S(C)(=O)=O)cc3)n2)n1C(C)C
Outline: as §1

[15] = compound: Cn1cc(-c2ccc3c(c2)CCN3C(=O)Cc2cccc(C(F)(F)F)c2)c2c(N)ncnc21
Outline: as §1

[16] = compound: Cn1cc(CNCC2CCN(c3ncc(C(=O)NO)cn3)CC2)c2ccccc21 [quisinostat]
Outline: as §1

[17] = compound: Cn1cncc1[C@@](N)(c1ccc(Cl)cc1)c1ccc2c(c1)c(-c1cccc(Cl)c1)cc(=O)n2C [tipifarnib]
Outline: as §1

[18] = compound: NC(=O)Nc1cc(-c2cccc(F)c2)sc1C(=O)N[C@H]1CCCNC1
Outline: as §1

[19] = compound: NC(=O)c1cnc(N[C@@H]2CCCC[C@@H]2N)nc1Nc1cccc(-n2nccn2)c1
Outline: as §1

[20] = compound: NC1(c2ccc(-c3nc4ccn5c(=O)[nH]nc5c4cc3-c3ccccc3)cc2)CCC1
Outline: as §1

Measured: log2 fold change

SNX6, A0A0A0MRI2
inactive: [1] -0.008 | [2] 0.018 | [3] -0.062 | [4] 0.2 | [5] 0.003 | [6] -0.134 | [7] 0.022 | [8] -0.012 | [9] -0.04 | [10] -0.088 | [11] -0.021 | [12] 0.009 | [13] 0.003 | [14] 0.03 | [15] 0.027 | [16] -0.003 | [17] 0.007 | [18] -0.015 | [19] 0.016 | [20] 0.016

SNW1 (UniProt Q13573)
inactive: [1] 0.019 | [2] -0.002 | [3] 0.002 | [4] 0.155 | [5] -0.018 | [6] -0.037 | [7] -0.01 | [8] -0.002 | [9] -0.002 | [10] -0.007 | [11] 0.002 | [12] -0.009 | [13] 0.024 | [14] -0.036 | [15] -0.015 | [16] 0.012 | [17] 0.009 | [18] -0.016 | [19] -0.01 | [20] -0.01

SMG5 (UniProt Q9UPR3)
inactive: [1] -0.038 | [2] 0.057 | [3] -0.007 | [4] 0.01 | [5] -0.006 | [6] -0.003 | [7] 0.019 | [8] -0.131 | [9] -0.035 | [10] -0.007 | [11] -0.058 | [12] 0.034 | [13] 0.003 | [14] -0.054 | [15] 0.03 | [16] 0.013 | [17] -0.115 | [18] 0.097 | [19] 0.048 | [20] -0.027

SMS (UniProt P52788)
inactive: [1] -0.019 | [2] 0.008 | [3] -0.007 | [4] 0.063 | [5] 0.008 | [6] -0.05 | [7] -0.005 | [8] -0.005 | [9] 0.025 | [10] -0.052 | [11] 0.016 | [12] 0 | [13] -0.025 | [14] -0.003 | [15] 0.003 | [16] -0.003 | [17] -0.008 | [18] -0.007 | [19] 0.001 | [20] 0
